Test results reported in PubChem BioAssay AID540276 (National Center for Advancing Translational Sciences (NCATS), 2011).
Among all 300,000 compounds or so, about 5,400 (1.8%) were called active. Inconclusive means that the source gave no clear call. Such entries were picked first, then a sample of the others. Calls come from the whole dose curve; tested in HEK293 cells. Where the call is inconclusive, the potency comes from a doubtful curve fit.

assay: qHTS for inhibitors of binding or entry into cells for Marburg Virus; conditions: Marburg virus pseudotyped entry inhibition, cell reporter; series mostly up to 37.8 µM
Potency is the fitted concentration of half-maximal effect.

SMILES	Potency
Cc1sc2ncn(CC(=O)NCC(=O)N3CCC4(CC3)OCCO4)c(=O)c2c1C	inconclusive: 0.1 µM [activator, full curve, poor fit]
COc1ccccc1NC(=O)Cn1c(C)cc(=O)c2cccc(OC)c21	inconclusive: 3.55 µM [inhibitor, single point]
COc1ccc(/C(C)=N/NC(=S)NCc2ccco2)cc1	inactive
CCOc1ccc(-c2noc(-c3cccnc3)n2)cc1OCC	inactive
CCOC(=O)c1sc(NS(=O)(=O)c2cc(C)ccc2C)nc1C	inconclusive: 0.0046 µM [inhibitor, full curve, poor fit]
Cc1ccc(NC(=O)c2cnccn2)cc1S(=O)(=O)N1CCCCCC1	inconclusive: 11.2 µM [inhibitor, partial curve, poor fit]
CCn1cc([N+](=O)[O-])c(C(=O)NCc2ccc3c(c2)OCO3)n1	inconclusive: 35.5 µM [activator, single point]
CN(C)c1ccc(P(=O)(COc2ccc([N+](=O)[O-])cc2)c2ccc(N(C)C)cc2)cc1	inconclusive: 28.2 µM [inhibitor, single point]
CCN(CC(=O)Nc1ccc(OC)cc1)CC(=O)Nc1ccc(Br)cc1F	inconclusive: 17.8 µM [inhibitor, partial curve, poor fit]
CC(Oc1ccccc1)C(=O)Nc1c(C(=O)Nc2cccc(F)c2)oc2ccccc12 (stereo not given)	inconclusive: 17.8 µM [activator, single point]
Cc1ccc(C)c(S(=O)(=O)NCc2ccc(C(=O)N3CCN(c4ccccc4)CC3)cc2)c1	inconclusive: 25.1 µM [inhibitor, single point]
NC(=O)c1ccc(NCC2CCCO2)c([N+](=O)[O-])c1 (stereo not given)	inactive
CCOC(=O)c1cc2sccc2n1CC(=O)c1ccc2c(c1)OCCO2	inconclusive: 29.1 µM [inhibitor, single point]
Cc1cc(C(=O)N/N=C/c2c[nH]c3ccccc23)cs1	inconclusive: 10 µM [inhibitor, partial curve, poor fit]
CCc1nnc(NS(=O)(=O)c2ccc(NC(=O)c3cccc4ccccc34)cc2)s1	inconclusive: 4.47 µM [activator, full curve]
Cc1cc(N2CCN(C/C=C/c3ccccc3)CC2)n2ncnc2n1	inconclusive: 6.51 µM [inhibitor, partial curve, poor fit]
COc1ccccc1C/C(N)=N/OC(=O)/C=C/c1ccccc1	inconclusive: 22.4 µM [inhibitor, single point]
O=C(C1=C(c2ccccc2)C(=O)c2ccccc2C1=O)c1ccccc1	inconclusive: 4.11 µM [inhibitor, full curve, poor fit]
Cc1ccc(OC(=O)c2c(C)nn(-c3ccccc3)c2C)cc1	inconclusive: 35.5 µM [inhibitor, single point]
O=C(Nc1ccc2c(c1)OCCO2)C1CC1c1ccccc1 (stereo not given)	inconclusive: 1.12 µM [activator, partial curve, poor fit]
Cc1c(C(=O)C(=O)N2CC=C(c3ccccc3)CC2)c2ccccc2n1C	inconclusive: 12.6 µM [inhibitor, partial curve, poor fit]
Nc1cc2c(cc1Cl)-c1ccc([N+](=O)[O-])cc1C2=NO	inconclusive: 0.316 µM [activator, partial curve, poor fit]

SMILES	Potency
COC(=O)CCCC1=CC2=C(c3ccccc3)C(=O)C(C)(OC(=O)C3CCCC3)C(=O)C2=CN1Cc1ccco1 (stereo not given)	inconclusive: 2.37 µM [inhibitor, single point]
Cc1csc(NC(=O)CCCC(=O)c2ccccc2)n1	inconclusive: 35.5 µM [activator, single point]
CCOC(=O)c1ccc(-n2c(O)c(/C=N/NC(=O)C3COc4ccccc4O3)c3ccccc3c2=O)cc1 (stereo not given)	inactive
O=C(N1CCN(c2ccccc2)CC1)C(F)(F)C(F)(F)F	inconclusive: 0.651 µM [inhibitor, single point]
Cc1noc(C)c1COC(=O)c1ccccc1NC(=O)Cc1ccccc1	inconclusive: 29.1 µM [inhibitor, single point]
CSc1nnc(NC(=O)CCc2ccccc2)s1	inconclusive: 3.66 µM [activator, full curve]
O=c1oc2ccccc2c(N2CCC(c3ccccc3)CC2)c1[N+](=O)[O-]	inconclusive: 12.6 µM [inhibitor, single point]
CN(C)c1ccc(/C=N/n2c(-c3cccnc3)n[nH]c2=S)cc1	inconclusive: 8.91 µM [activator, partial curve, poor fit]
N#Cc1c(Cl)nc2c(c1C#N)CCCC2	inactive
CN(C(=O)COC(=O)c1sc2ccccc2c1Cl)C1CCCCC1	inconclusive: 0.126 µM [inhibitor, full curve, poor fit]
O=C(O)c1ccc(COc2c(F)c(F)c(F)c(F)c2F)o1	inactive
CCCn1c(=O)c2c(nc3n2CCS3)n(C)c1=O	inconclusive: 6.31 µM [activator, partial curve, poor fit]
CCOc1ccc(C(=O)n2cc(C(=O)OC)c3ccccc32)cc1	inconclusive: 35.5 µM [inhibitor, single point]
Cc1ccc(NC(=O)c2sc(Cl)nc2-c2ccccc2)cc1	inconclusive: 10 µM [inhibitor, partial curve]
CSc1nc(O)c(/C=C2\C=Nc3ccccc32)[nH]1	inconclusive: 12.6 µM [activator, partial curve, poor fit]
CCN(CC)c1ccc(C(=O)n2cnc3ccccc32)cc1	inconclusive: 35.5 µM [inhibitor, single point]
COc1ccc(CN2CCCCC2c2cccnc2)cc1C (stereo not given)	inactive
CCCC[C@]12Cc3c(ccc4ccccc34)[C@H](O1)c1c(cc(C)oc1=O)O2	inconclusive: 1.68 µM [activator, single point]
O=C(CCNC(=O)Cn1ccc2ccccc2c1=O)NCCc1ccc(Cl)cc1	inconclusive: 35.5 µM [activator, single point]
Cc1cc(Br)ccc1SCC(=O)OCC(O)=C(C#N)c1nc2ccccc2[nH]1	inconclusive: 35.5 µM [inhibitor, single point]
COc1n[nH]c(C(=O)Nc2nc3ccccc3s2)c1[N+](=O)[O-]	inconclusive: 17.8 µM [inhibitor, single point]
COc1ccc(-c2cc(-c3cccs3)nc3sc(C#N)c(N)c23)cc1	inconclusive: 0.447 µM [inhibitor, full curve, poor fit]

2 of these compounds, set out differently:
N#Cc1c(Cl)nc2c(c1C#N)CCCC2
  Potency: inactive
COc1n[nH]c(C(=O)Nc2nc3ccccc3s2)c1[N+](=O)[O-]
  Potency: inconclusive: 17.8 µM [inhibitor, single point]

(further entries)

SMILES	Potency
Cc1ccccc1-c1csc(N)n1	inactive
CCN(C(=O)c1ccc2c(Cl)c3c(nc2c1)CCC3)c1cccc(C)c1	inconclusive: 29.1 µM [inhibitor, single point]
Cc1ccc2[nH]c(CSc3ccccc3)cc(=O)c2c1	inactive
CC1(C(=O)OCC(=O)Nc2nc(-c3ccc(F)c(F)c3)cs2)CC1(Cl)Cl (stereo not given)	inconclusive: 35.5 µM [inhibitor, single point]
Cn1cccc1C(=O)NCCc1ccccc1	inconclusive: 8.91 µM [inhibitor, partial curve, poor fit]
COc1cc(C(=O)NC(c2ccccc2)c2ccccc2)cc(Cl)c1OC	inactive
Cc1ccc(NC(=O)c2nc(S(=O)(=O)Cc3ccc(F)cc3)ncc2Cl)cc1C	inconclusive: 35.5 µM [inhibitor, single point]
CCOC(=O)c1cnn(-c2nc(OCC)cc(OCC)n2)c1C	inconclusive: 3.98 µM [activator, single point]
Cc1cc(CN2CCN(CCC#N)CC2)c(O)c(C2(C)CCCCC2)c1	inconclusive: 5.62 µM [inhibitor, full curve, poor fit]
COc1ccccc1-c1nnc(NC(=O)c2ccc(S(=O)(=O)N(C)Cc3ccccc3)cc2)o1	inconclusive: 20 µM [inhibitor, partial curve, poor fit]
Cn1nc(C(F)(F)F)c2cc(C(=O)Nc3ccc(C(F)(F)F)cc3)sc21	inconclusive: 22.4 µM [inhibitor, single point]
Cc1cc2c(cc(C(=O)NCCCN3CCOCC3)n2Cc2ccc(Cl)cc2)o1	inconclusive: 25.9 µM [inhibitor, single point]
NC(=O)c1ccccc1NC(=O)CCCc1ccccc1	inconclusive: 35.5 µM [inhibitor, partial curve, poor fit]
CCCn1cnc2cc(NCc3ccc(Br)cc3)ccc21	inconclusive: 5.62 µM [activator, single point]
O=C(NCc1ccccc1)c1ccccc1OCC(=O)N1CCCCC1	inactive
Cc1ccc(C(=O)Nc2ccc(N3CCN(C(=O)c4cccs4)CC3)cc2)c(Cl)c1	inconclusive: 11.2 µM [inhibitor, partial curve, poor fit]
CC(C)CCN1CCN(Cc2cn[nH]c2C2CCCCC2)CC1CCO (stereo not given)	inconclusive: 6.31 µM [activator, single point]
COc1ccc(C(=O)NCc2ncccc2C)cc1OC1CCN(C(C)=O)CC1	inactive
CCCCC(=O)NC(=S)Nc1nnn(CCC)n1	inactive
NC(=O)c1ccc[n+](CC(=O)c2ccc(NC(=O)c3ccccc3)cc2)c1	inconclusive: 1.26 µM [activator, single point]
COc1ccc(C(=O)NC(=S)NCC2CCCO2)cc1 (stereo not given)	inconclusive: 17.8 µM [activator, single point]

A section from the list above, as a working copy:
SMILES	Potency
CN(C)c1ccc(P(=O)(COc2ccc([N+](=O)[O-])cc2)c2ccc(N(C)C)cc2)cc1	inconclusive: 28.2 µM [inhibitor, single point]
CCN(CC(=O)Nc1ccc(OC)cc1)CC(=O)Nc1ccc(Br)cc1F	inconclusive: 17.8 µM [inhibitor, partial curve, poor fit]
CC(Oc1ccccc1)C(=O)Nc1c(C(=O)Nc2cccc(F)c2)oc2ccccc12 (stereo not given)	inconclusive: 17.8 µM [activator, single point]
